# Laboratory results: PubChem BioAssay AID332 (DTP/NCI, 2004)
# The list shows only some results of the screen, not a fair sample: its compounds were picked by chemical class. Not every dose and run of a compound is shown. T/C gives the treated animals as a percentage of the vehicle group. Schedule codes are those of the source, read here as Q, the interval in days (D) or hours (H), X, the number of doses. Some T/C values carry the count of animals alive at the toxicity check; without a count or a note in brackets, all were alive then. Some doses have a count of surviving animals in place of a T/C: the source files T/C as zero there, which appears to mark a toxic dose or a test without result, not a measured value. Survivors were counted at the toxicity check; its day is shown where the source gives one, and later deaths do not show.
# System: mice, ADJ-PC-20 plasma cell tumor sc, T/C %
# Test: NCI In Vivo Anticancer Drug Screen. Data for tumor model ADJ-PC-20 Plasma Cell (subcutaneous) in unknown mice
# Conditions: T/C endpoint: mean tumor weight, higher T/C = larger tumour
# Protocol: The antitumor activity of compounds was measured in mice bearing transplantable tumors. Survival or tumor size were measured and the results are expressed as the measurement made in the treated group (T) divided by the measurement made in the vehicle treated control group (C). The tumor model used in this assay is ADJ-PC-20 Plasma Cell (subcutaneous) in unknown mice
compound,measurement,setting,value
CN(N=O)C(=N)N[N+](=O)[O-],T/C,"dose: 3.75 mg/kg/injection, schedule: Q01DX010 (ip), vehicle: carboxymethylcellulose (CMC), evaluated on day 21",63 % of control
same,survivor count,"dose: 7.5 mg/kg/injection, schedule: Q01DX010 (ip), vehicle: carboxymethylcellulose (CMC)",6 of 10
same,T/C,"dose: 15.0 mg/kg/injection, schedule: Q01DX010 (ip), vehicle: carboxymethylcellulose (CMC), evaluated on day 21",69 % of control
same,survivor count,"dose: 30.0 mg/kg/injection, schedule: Q01DX010 (ip), vehicle: carboxymethylcellulose (CMC)",1 of 10
Cc1[nH]c(=O)[nH]c(=O)c1N(CCCl)CCCl,T/C,"dose: 0.25 mg/kg/injection, schedule: Q01DX010 (ip), vehicle: carboxymethylcellulose (CMC), evaluated on day 21",100 % of control
same,T/C,"dose: 0.5 mg/kg/injection, schedule: Q01DX010 (ip), vehicle: carboxymethylcellulose (CMC), evaluated on day 21",72 % of control
same,T/C,"dose: 1.0 mg/kg/injection, schedule: Q01DX010 (ip), vehicle: carboxymethylcellulose (CMC), evaluated on day 21",56 % of control
same,T/C,"dose: 1.0 mg/kg/injection, schedule: Q01DX011 (ip), vehicle: carboxymethylcellulose (CMC), evaluated on day 21",43 % of control
same,T/C,"dose: 2.0 mg/kg/injection, schedule: Q01DX010 (ip), vehicle: carboxymethylcellulose (CMC), evaluated on day 21",5 % of control
same,survivor count,"dose: 4.0 mg/kg/injection, schedule: Q01DX011 (ip), vehicle: carboxymethylcellulose (CMC)",0 of 10
same,survivor count,"dose: 8.0 mg/kg/injection, schedule: Q01DX011 (ip), vehicle: carboxymethylcellulose (CMC)",0 of 10
COC1OC(CNCCCl)C2OC(C)(C)OC12 (stereo unspecified),T/C,"dose: 65.0 mg/kg/injection, schedule: Q01DX010 (ip), vehicle: saline, evaluated on day 18",45 % of control
same,T/C,"dose: 108.0 mg/kg/injection, schedule: Q01DX010 (ip), vehicle: saline, evaluated on day 18",77 % of control
same,T/C,"dose: 180.0 mg/kg/injection, schedule: Q01DX010 (ip), vehicle: saline, evaluated on day 18",25 % of control [9 of 10 alive]
same,survivor count,"dose: 500.0 mg/kg/injection, schedule: Q01DX010 (ip), vehicle: saline",0 of 10
OC(CNCCCl)C(O)C(O)C(O)CNCCCl (stereo unspecified),T/C,"dose: 6.3 mg/kg/injection, schedule: Q01DX010 (ip), vehicle: saline, evaluated on day 21",29 % of control [9 of 10 alive]
same,survivor count,"dose: 12.5 mg/kg/injection, schedule: Q01DX010 (ip), vehicle: saline",5 of 10
same,survivor count,"dose: 25.0 mg/kg/injection, schedule: Q01DX010 (ip), vehicle: saline",0 of 10
same,survivor count,"dose: 50.0 mg/kg/injection, schedule: Q01DX010 (ip), vehicle: saline",0 of 10
CC[C@H](C)[C@@H]1NC(=O)/C(=C(\C)O)C1=O,T/C,"dose: 6.3 mg/kg/injection, schedule: Q01DX010 (ip), vehicle: water, evaluated on day 21",84 % of control [9 of 10 alive]
same,T/C,"dose: 12.5 mg/kg/injection, schedule: Q01DX010 (ip), vehicle: water, evaluated on day 21",94 % of control
same,T/C,"dose: 12.5 mg/kg/injection, schedule: Q01DX011 (ip), vehicle: water, evaluated on day 21",69 % of control
same,survivor count,"dose: 25.0 mg/kg/injection, schedule: Q01DX010 (ip), vehicle: water",5 of 10
same,survivor count,"dose: 25.0 mg/kg/injection, schedule: Q01DX011 (ip), vehicle: water",6 of 10
same,survivor count,"dose: 50.0 mg/kg/injection, schedule: Q01DX011 (ip), vehicle: water",1 of 10
same,survivor count,"dose: 100.0 mg/kg/injection, schedule: Q01DX011 (ip), vehicle: water",0 of 10
